No constants are given. Whether binding was seen depends on the method and setting. Binding seen in cells or lysates may run through a third protein. Some entries that bind do so weakly or less than the wild type.
Target: Ago2 (human (endogenous in THP-1)) (UniProt Q9UKV8)
Assay: co-IP; lysate of exosomes (60 ug total exosomal protein; 0.5% NP40, 150 mM KCl, 25 mM Tris, 2 mM EDTA) from supernatants of EV71-infected THP-1 cells (0.1 TCID50); AGO2 antibody and GW182 antibody, 4°C overnight, Protein A/G agarose; rabbit IgG as control; Western blot

Sequences of proteins named here, by UniProt entry; tags and fusion partners are left off.
UniProt Q9UKV8: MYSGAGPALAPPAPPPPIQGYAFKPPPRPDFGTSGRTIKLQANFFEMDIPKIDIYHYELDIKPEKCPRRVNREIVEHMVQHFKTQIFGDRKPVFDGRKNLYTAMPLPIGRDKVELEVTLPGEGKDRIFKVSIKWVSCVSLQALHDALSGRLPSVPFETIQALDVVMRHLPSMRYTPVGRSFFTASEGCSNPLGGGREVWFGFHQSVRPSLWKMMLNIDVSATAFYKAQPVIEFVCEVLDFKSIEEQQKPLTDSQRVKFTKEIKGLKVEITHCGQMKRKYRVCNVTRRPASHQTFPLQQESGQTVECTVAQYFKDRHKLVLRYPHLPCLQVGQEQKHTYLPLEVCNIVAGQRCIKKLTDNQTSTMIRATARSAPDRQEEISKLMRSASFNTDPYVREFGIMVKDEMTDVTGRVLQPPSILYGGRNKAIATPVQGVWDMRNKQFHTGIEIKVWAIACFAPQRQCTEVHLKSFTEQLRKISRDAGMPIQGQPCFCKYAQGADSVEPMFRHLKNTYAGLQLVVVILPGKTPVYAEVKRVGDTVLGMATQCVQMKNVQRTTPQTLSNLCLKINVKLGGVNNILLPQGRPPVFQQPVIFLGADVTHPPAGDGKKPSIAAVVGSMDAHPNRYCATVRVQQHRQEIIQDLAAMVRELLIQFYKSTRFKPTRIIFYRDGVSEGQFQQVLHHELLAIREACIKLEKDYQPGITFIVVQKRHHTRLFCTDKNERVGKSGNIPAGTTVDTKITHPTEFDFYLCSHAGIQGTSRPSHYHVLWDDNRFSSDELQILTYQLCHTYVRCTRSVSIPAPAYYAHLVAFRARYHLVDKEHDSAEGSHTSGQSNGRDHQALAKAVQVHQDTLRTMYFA
UniProt Q8NDV7: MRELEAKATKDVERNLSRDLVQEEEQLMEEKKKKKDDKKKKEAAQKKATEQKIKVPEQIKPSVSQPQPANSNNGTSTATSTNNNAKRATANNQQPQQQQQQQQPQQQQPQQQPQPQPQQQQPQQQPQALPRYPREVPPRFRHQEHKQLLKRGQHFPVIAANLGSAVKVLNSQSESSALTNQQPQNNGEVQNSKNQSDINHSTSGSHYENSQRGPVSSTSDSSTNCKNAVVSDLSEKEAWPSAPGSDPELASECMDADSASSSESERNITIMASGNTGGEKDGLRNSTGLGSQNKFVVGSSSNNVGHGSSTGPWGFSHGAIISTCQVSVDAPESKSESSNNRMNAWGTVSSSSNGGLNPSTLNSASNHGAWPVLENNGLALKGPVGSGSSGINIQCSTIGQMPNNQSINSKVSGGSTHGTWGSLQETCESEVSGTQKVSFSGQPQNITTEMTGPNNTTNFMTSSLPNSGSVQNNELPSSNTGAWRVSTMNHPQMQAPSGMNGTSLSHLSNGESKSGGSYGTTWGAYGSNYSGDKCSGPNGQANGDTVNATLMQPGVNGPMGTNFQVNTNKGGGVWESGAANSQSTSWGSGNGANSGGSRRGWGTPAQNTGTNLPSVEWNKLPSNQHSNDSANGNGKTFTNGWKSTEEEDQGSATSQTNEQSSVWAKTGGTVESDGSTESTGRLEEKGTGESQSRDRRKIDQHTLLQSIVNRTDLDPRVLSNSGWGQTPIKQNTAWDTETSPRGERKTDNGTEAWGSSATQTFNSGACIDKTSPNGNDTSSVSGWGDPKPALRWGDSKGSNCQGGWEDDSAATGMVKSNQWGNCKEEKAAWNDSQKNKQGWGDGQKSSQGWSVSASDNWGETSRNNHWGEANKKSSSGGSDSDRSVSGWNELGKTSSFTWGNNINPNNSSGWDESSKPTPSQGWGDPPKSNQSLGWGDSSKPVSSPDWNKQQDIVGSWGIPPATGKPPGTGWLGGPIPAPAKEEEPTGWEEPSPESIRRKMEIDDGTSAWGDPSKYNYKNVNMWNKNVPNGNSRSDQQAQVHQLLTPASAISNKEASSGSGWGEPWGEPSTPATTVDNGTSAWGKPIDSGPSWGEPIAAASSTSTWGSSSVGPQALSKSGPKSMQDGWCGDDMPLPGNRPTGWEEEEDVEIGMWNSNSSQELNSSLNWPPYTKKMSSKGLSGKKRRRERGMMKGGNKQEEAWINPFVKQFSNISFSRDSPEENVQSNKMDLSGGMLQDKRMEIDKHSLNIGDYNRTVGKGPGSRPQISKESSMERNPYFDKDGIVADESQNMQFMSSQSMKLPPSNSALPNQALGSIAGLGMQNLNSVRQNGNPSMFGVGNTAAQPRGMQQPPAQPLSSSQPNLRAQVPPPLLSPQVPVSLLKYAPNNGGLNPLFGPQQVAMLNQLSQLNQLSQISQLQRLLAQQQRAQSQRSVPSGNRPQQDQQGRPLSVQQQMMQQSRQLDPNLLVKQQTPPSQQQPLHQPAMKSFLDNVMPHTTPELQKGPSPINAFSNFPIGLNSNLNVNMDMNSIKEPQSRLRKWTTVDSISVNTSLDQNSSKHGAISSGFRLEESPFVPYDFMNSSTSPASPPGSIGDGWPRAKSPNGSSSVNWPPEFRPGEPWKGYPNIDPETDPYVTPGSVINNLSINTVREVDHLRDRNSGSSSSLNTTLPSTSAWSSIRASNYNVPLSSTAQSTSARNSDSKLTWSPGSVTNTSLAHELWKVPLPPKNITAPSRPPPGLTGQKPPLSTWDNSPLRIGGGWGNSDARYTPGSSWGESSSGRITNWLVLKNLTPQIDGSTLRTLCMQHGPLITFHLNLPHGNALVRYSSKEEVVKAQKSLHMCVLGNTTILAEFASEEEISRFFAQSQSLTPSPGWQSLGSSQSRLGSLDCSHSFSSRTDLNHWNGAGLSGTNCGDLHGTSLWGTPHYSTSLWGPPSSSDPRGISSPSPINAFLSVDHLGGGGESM

binding: binds
Substance: GW182 (from UniProt Q8NDV7 1-1962)

— PMC5614653
